The target of assay [1] is GST-fused SH3E domain of ITSN1 (human) (UniProt Q15811). As to the kind of experiment: pull-down; GST-SH3 domains (5-20 ug) on glutathione beads incubated 2 h at 4°C with lysate of mouse brain; 20 mM Tris-HCl pH 7.5, 0.5% NP40, 150 mM NaCl, 10% glycerol, 1 mM Na3VO4; immunoblot with antibodies against dynamin 1 or SOS1; only the target purified. Background: In western blotting, separated proteins are transferred to a membrane and probed.

Protein sequences, listed by entry. Tags and fused reporters are not part of them. Lines headed by an entry give the natural chain unless they say otherwise; changes in a name come on top. Residues count along the entry.
UniProt Q15811: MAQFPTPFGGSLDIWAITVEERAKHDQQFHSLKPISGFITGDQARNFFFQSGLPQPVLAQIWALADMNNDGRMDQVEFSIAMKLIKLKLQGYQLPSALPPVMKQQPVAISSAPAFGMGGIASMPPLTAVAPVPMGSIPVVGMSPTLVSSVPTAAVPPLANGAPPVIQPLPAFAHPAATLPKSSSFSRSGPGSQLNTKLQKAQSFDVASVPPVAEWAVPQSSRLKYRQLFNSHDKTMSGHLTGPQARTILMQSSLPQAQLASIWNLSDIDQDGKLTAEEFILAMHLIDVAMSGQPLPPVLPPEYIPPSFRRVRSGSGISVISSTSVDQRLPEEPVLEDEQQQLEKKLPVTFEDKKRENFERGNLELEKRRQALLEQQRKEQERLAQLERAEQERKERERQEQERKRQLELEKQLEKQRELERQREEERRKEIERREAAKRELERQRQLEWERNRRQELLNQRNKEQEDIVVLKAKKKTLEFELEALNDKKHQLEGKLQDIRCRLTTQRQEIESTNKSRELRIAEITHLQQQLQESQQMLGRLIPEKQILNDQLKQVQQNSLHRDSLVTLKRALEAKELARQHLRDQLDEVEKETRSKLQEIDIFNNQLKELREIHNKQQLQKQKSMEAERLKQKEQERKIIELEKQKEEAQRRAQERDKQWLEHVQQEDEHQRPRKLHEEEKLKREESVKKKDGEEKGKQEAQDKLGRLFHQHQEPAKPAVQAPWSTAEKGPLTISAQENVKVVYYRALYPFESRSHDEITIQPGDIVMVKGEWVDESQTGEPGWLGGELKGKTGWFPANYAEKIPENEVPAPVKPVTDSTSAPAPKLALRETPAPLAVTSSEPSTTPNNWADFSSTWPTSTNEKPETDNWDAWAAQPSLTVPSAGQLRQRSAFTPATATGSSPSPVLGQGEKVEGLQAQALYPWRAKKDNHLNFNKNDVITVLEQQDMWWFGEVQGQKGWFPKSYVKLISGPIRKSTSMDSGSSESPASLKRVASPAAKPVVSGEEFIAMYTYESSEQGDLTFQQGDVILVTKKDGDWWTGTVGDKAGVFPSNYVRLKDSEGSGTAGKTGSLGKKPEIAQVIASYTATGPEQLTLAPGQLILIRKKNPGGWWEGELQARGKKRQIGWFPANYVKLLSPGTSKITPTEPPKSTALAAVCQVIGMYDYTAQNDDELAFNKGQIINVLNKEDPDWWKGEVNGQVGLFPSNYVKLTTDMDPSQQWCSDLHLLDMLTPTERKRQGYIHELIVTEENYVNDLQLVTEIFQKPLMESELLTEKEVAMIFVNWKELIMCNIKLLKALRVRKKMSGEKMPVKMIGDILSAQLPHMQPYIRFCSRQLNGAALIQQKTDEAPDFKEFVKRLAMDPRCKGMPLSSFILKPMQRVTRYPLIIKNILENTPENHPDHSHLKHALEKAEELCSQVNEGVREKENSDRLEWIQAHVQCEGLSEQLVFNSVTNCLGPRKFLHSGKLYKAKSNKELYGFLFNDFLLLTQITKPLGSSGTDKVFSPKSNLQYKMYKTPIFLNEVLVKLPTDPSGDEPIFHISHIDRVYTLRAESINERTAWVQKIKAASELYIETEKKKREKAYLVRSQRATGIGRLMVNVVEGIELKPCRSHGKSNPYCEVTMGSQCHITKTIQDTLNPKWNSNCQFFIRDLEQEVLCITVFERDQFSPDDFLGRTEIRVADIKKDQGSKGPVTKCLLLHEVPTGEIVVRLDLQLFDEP
UniProt O43426, residues 1003-1558: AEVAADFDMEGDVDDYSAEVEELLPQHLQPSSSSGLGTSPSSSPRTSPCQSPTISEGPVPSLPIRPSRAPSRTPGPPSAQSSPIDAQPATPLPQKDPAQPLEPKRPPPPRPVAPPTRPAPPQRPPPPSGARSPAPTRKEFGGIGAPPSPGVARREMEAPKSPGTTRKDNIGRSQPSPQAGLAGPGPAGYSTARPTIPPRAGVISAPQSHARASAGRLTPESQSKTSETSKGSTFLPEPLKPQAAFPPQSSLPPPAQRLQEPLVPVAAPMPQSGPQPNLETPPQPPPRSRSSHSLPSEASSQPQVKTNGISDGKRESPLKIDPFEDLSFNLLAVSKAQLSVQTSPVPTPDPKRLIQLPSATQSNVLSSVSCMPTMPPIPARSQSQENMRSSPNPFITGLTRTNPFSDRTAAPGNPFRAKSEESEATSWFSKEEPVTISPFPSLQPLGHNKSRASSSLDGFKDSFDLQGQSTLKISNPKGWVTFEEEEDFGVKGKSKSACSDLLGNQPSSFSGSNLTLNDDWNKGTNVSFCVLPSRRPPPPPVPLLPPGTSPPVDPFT
UniProt O00401, residues 22-459: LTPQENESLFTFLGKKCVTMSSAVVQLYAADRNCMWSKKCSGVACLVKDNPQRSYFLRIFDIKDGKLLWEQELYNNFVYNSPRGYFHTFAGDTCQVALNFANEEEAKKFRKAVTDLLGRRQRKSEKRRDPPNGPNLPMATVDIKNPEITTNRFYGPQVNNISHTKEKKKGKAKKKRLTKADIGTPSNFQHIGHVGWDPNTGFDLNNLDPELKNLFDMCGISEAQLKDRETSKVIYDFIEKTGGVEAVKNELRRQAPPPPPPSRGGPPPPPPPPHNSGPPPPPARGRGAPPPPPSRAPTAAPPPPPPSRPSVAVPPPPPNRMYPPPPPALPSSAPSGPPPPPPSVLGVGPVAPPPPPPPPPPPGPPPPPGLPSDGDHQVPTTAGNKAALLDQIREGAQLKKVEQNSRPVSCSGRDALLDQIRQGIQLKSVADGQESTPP

Assay [2] concerns the target GST-fused SH3C domain of ITSN1 (human) (UniProt Q15811). The description is as above.
The target of assay [3] is GST-fused SH3A domain of ITSN1 (human) (UniProt Q15811). The assay is described as above.
For assay [4], the target named is GST-fused SH3E domain of ITSN1 (human) (UniProt Q15811). The assay can be described thus: pull-down; GST-SH3 domains (5-20 ug) on glutathione beads incubated 2 h at 4°C with lysate of HEK293 cells expressing the tagged protein; 20 mM Tris-HCl pH 7.5, 0.5% NP40, 150 mM NaCl, 10% glycerol, 1 mM Na3VO4; immunoblot with antibodies against tags; only the target purified.

The target in assay [5] is GST-fused SH3C domain of ITSN1 (human) (UniProt Q15811). The assay is described as above.
Assay [6] concerns the target GST-fused SH3A domain of ITSN1 (human) (UniProt Q15811). Described as above.
In assay [7] the target is GST-fused SH3(A-E) domains of ITSN1 (human) (UniProt Q15811). The description is as above.
The target in assay [8] is GST-fused SH3D domain of ITSN1 (human) (UniProt Q15811). The assay is described as above.

Data on nine molecules can be found in publication PMC3723668.

No constants are given. Whether binding was seen depends on the method and setting. In cells and extracts the contact can be indirect. A result given as binding can be weak or reduced; the word gives no strength. For some of these results: Where a sequence is shown, tags or fusion partners need not be part of it.

Regarding “SOS1, endogenous in mouse brain (from UniProt Q62245 1-1319)”, the binding result in assay [1], in assay [2] and in assay [3] was “binds” in each case.
“Omni-synaptojanin 1 proline-rich domain (residues 1003-1558) (from UniProt O43426 1003-1558) (domain or fragment)”: the binding entry in assay [4], in assay [5] and in assay [6] was “binds” in each case.
As to “Omni-N-WASP proline-rich domain (residues 22-459) (from UniProt O00401 22-459) (domain or fragment)”, the binding result in assay [7] was “binds”.

B1: Myc-POB1 (protein, UniProt Q8NFH8 1-660)
chain: MEAAAAAAAAAAAAAAAGGGCGSGPPPLLLSEGEQQCYSELFARCAGAAGGGPGSGPPEAARVAPGTATAAAGPVADLFRASQLPAETLHQITELCGAKRVGYFGPTQFYIALKLIAAAQSGLPVRIESIKCELPLPRFMMSKNDGEIRFGNPAELHGTKVQIPYLTTEKNSFKRMDDEDKQQETQSPTMSPLASPPSSPPHYQRVPLSHGYSKLRSSAEQMHPAPYEARQPLVQPEGSSSGGPGTKPLRHQASLIRSFSVERELQDNSSYPDEPWRITEEQREYYVNQFRSLQPDPSSFISGSVAKNFFTKSKLSIPELSYIWELSDADCDGALTLPEFCAAFHLIVARKNGYPLPEGLPPTLQPEYLQAAFPKPKWDCQLFDSYSESLPANQQPRDLNRMEKTSVKDMADLPVPNQDVTSDDKQALKSTINEALPKDVSEDPATPKDSNSLKARPRSRSYSSTSIEEAMKRGEDPPTPPPRPQKTHSRASSLDLNKVFQPSVPATKSGLLPPPPALPPRPCPSQSEQVSEAELLPQLSRAPSQAAESSPAKKDVLYSQPPSKPIRRKFRPENQATENQEPSTAASGPASAATMKPHPTVQKQSSKQKKAIQTAIRKNKEANAVLARLNSELQQQLKEVHQERIALENQLEQLRPVTVL
As for B1, the binding result in assay [7] was “binds”.

B2: dynamin 1, endogenous in mouse brain (protein, UniProt P39053 1-867)
chain: MGNRGMEDLIPLVNRLQDAFSAIGQNADLDLPQIAVVGGQSAGKSSVLENFVGRDFLPRGSGIVTRRPLVLQLVNSTTEYAEFLHCKGKKFTDFEEVRLEIEAETDRVTGTNKGISPVPINLRVYSPHVLNLTLVDLPGMTKVPVGDQPPDIEFQIRDMLMQFVTKENCLILAVSPANSDLANSDALKIAKEVDPQGQRTIGVITKLDLMDEGTDARDVLENKLLPLRRGYIGVVNRSQKDIDGKKDITAALAAERKFFLSHPSYRHLADRMGTPYLQKVLNQQLTNHIRDTLPGLRNKLQSQLLSIEKEVDEYKNFRPDDPARKTKALLQMVQQFAVDFEKRIEGSGDQIDTYELSGGARINRIFHERFPFELVKMEFDEKELRREISYAIKNIHGIRTGLFTPDMAFETIVKKQVKKIREPCLKCVDMVISELISTVRQCTKKLQQYPRLREEMERIVTTHIREREGRTKEQVMLLIDIELAYMNTNHEDFIGFANAQQRSNQMNKKKTSGNQDEILVIRKGWLTINNIGIMKGGSKEYWFVLTAENLSWYKDDEEKEKKYMLSVDNLKLRDVEKGFMSSKHIFALFNTEQRNVYKDYRQLELACETQEEVDSWKASFLRAGVYPERVGDKEKASETEENGSDSFMHSMDPQLERQVETIRNLVDSYMAIVNKTVRDLMPKTIMHLMINNTKEFIFSELLANLYSCGDQNTLMEESAEQAQRRDEMLRMYHALKEALSIIGDINTTTVSTPMPPPVDDSWLQVQSVPAGRRSPTSSPTPQRRAPAVPPARPGSRGPAPGPPPAGSALGGAPPVPSRPGASPDPFGPPPQVPSRPNRAPPGVPSLGAWRLNSPQGKHENRAGKARL
On to B2, for which the binding result in assay [1], in assay [2] and in assay [3] was “binds” in each case.

B3: Omni-Sema6A cytoplasmic domain (residues 650-1021) (domain or fragment, UniProt Q9H2E6 650-1021)
chain: LLAIAVILAFVMGAVFSGITVYCVCDHRRKDVAVVQRKEKELTHSRRGSMSSVTKLSGLFGDTQSKDPKPEAILTPLMHNGKLATPGNTAKMLIKADQHHLDLTALPTPESTPTLQQKRKPSRGSREWERNQNLINACTKDMPPMGSPVIPTDLPLRASPSHIPSVVVLPITQQGYQHEYVDQPKMSEVAQMALEDQAATLEYKTIKEHLSSKSPNHGVNLVENLDSLPPKVPQREASLGPPGASLSQTGLSKRLEMHHSSSYGVDYKRSYPTNSLTRSHQATTLKRNNTNSSNSSHLSRNQSFGRGDNPPPAPQRVDSIQVHSSQPSGQAVTVSRQPSLNAYNSLTRSGLKRTPSLKPDVPPKPSFAPLST
B3: the binding result in assay [4], in assay [5] and in assay [6] was “binds” throughout.

B4: Omni-Reps1 (full-length) (protein, UniProt Q96D71 1-796)
chain: MEGLTLSDAEQKYYSDLFSYCDIESTKKVVVNGRVLELFRAAQLPNDVVLQIMELCGATRLGYFGRSQFYIALKLVAVAQSGFPLRVESINTVKDLPLPRFVASKNEQESRHAASYSSDSENQGSYSGVIPPPPGRGQVKKGSVSHDTVQPRTSADAQEPASPVVSPQQSPPTSPHTWRKHSRHPSGGNSERPLAGPGPFWSPFGEAQSGSSAGDAVWSGHSPPPPQENWVSFADTPPTSTLLTMHPASVQDQTTVRTVASATTAIEIRRQSSSYDDPWKITDEQRQYYVNQFKTIQPDLNGFIPGSAAKEFFTKSKLPILELSHIWELSDFDKDGALTLDEFCAAFHLVVARKNGYDLPEKLPESLMPKLIDLEDSADVGDQPGEVGYSGSPAEAPPSKSPSMPSLNQTWPELNQSSEQWETFSERSSSSQTLTQFDSNIAPADPDTAIVHPVPIRMTPSKIHMQEMELKRTGSDHTNPTSPLLVKPSDLLEENKINSSVKFASGNTVADGYSSSDSFTSDPEQIGSNVTRQRSHSGTSPDNTAPPPPPPRPQPSHSRSSSLDMNRTFTVTTGQQQAGVVAHPPAVPPRPQPSQAPGPAVHRPVDADGLITHTSTSPQQIPEQPNFADFSQFEVFAASNVNDEQDDEAEKHPEVLPAEKASDPASSLRVAKTDSKTEEKTAASAPANVSKGTTPLAPPPKPVRRRLKSEDELRPEVDEHTQKTGVLAAVLASQPSIPRSVGKDKKAIQASIRRNKETNTVLARLNSELQQQLKDVLEERISLEVQLEQLRPFSHL
In the case of B4, in assay [7], the binding result is listed as “binds”.

B5: Flag-SPRY2 (protein, UniProt O43597 1-315)
chain: MEARAQSGNGSQPLLQTPRDGGRQRGEPDPRDALTQQVHVLSLDQIRAIRNTNEYTEGPTVVPRPGLKPAPRPSTQHKHERLHGLPEHRQPPRLQHSQVHSSARAPLSRSISTVSSGSRSSTRTSTSSSSSEQRLLGSSFSSGPVADGIIRVQPKSELKPGELKPLSKEDLGLHAYRCEDCGKCKCKECTYPRPLPSDWICDKQCLCSAQNVIDYGTCVCCVKGLFYHCSNDDEDNCADNPCSCSQSHCCTRWSAMGVMSLFLPCLWCYLPAKGCLKLCQGCYDRVNRPGCRCKNSNTVCCKVPTVPPRNFEKPT
As for B5, the binding entry in assay [4], in assay [5] and in assay [6] was “binds” in each case.

B6: Flag-Numb (protein, UniProt P49757 1-651)
chain: MNKLRQSFRRKKDVYVPEASRPHQWQTDEEGVRTGKCSFPVKYLGHVEVDESRGMHICEDAVKRLKAERKFFKGFFGKTGKKAVKAVLWVSADGLRVVDEKTKDLIVDQTIEKVSFCAPDRNFDRAFSYICRDGTTRRWICHCFMAVKDTGERLSHAVGCAFAACLERKQKREKECGVTATFDASRTTFTREGSFRVTTATEQAEREEIMKQMQDAKKAETDKIVVGSSVAPGNTAPSPSSPTSPTSDATTSLEMNNPHAIPRRHAPIEQLARQGSFRGFPALSQKMSPFKRQLSLRINELPSTMQRKTDFPIKNAVPEVEGEAESISSLCSQITNAFSTPEDPFSSAPMTKPVTVVAPQSPTFQANGTDSAFHVLAKPAHTALAPVAMPVRETNPWAHAPDAANKEIAATCSGTEWGQSSGAASPGLFQAGHRRTPSEADRWLEEVSKSVRAQQPQASAAPLQPVLQPPPPTAISQPASPFQGNAFLTSQPVPVGVVPALQPAFVPAQSYPVANGMPYPAPNVPVVGITPSQMVANVFGTAGHPQAAHPHQSPSLVRQQTFPHYEASSATTSPFFKPPAQHLNGSAAFNGVDDGRLASADRHTEVPTGTCPVDPFEAQWAALENKSKQRTNPSPTNPFSSDLQKTFEIEL
Consider B6, for which the binding entry in assay [8] is reported as “binds”.
